Screen size: about 360,000 compounds; about 7,500 (2.1%) were called active. The inconclusive results got no clear call from the source; some entries with a clear call stand among them for comparison. Calls come from the whole dose curve; as a rule, active = well fitted inhibition curve with a large enough effect; inconclusive = small, poorly fitted or top-dose-only effect, or effect the other way; inactive = flat fitted curve, though single readings scatter. A potency beside an inconclusive call is a rough fit, not a confirmed value.
assay: Nrf2 qHTS screen for inhibitors; settings: A549 ARE-Fluc reporter, luciferase luminescence, 18-24 h; activity change, negative = inhibition: at 46 µM (top of the series); note: nearly all actives have a fitted effect of over 60% in size
Outline: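 Nrf2 function is reported as luminescence of an ARE-controlled luciferase in A549 cells. Compounds were tested at several concentrations, and a CellTiter-Fluor read on the same wells flagged cytotoxicity.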
% is set by controls: 0 for no effect and ±100 for the full control effect; potency is the fitted concentration of half-maximal effect.

Structure (SMILES)	Potency	activity change, negative = inhibition
Cc1cc2c(c(C)c1Cl)C(c1ccc3c(c1)OCO3)CC(c1ccccc1)O2 (stereo not given)	inactive	
COc1ccccc1NC(=O)Cn1cnc2c(cnn2-c2ccc(C)c(C)c2)c1=O		inactive: -7.59%
CC(C)c1ccc(OCC(O)Cn2cnc3ccccc32)cc1 (stereo not given)	inconclusive: 16.4 µM [falling, partial curve]	
CC1Cc2ccccc2N1C(=O)/C=C/c1cccc(F)c1 (stereo not given)	inconclusive: 5.8 µM [activator, full curve]	
CN1CCN(NC(=O)NC2CCCCC2)CC1		inactive: 11.4%
CSc1nc(N2CCOCC2)c2c(c1C#N)CC(C(C)C)OC2 (stereo not given)	inconclusive: 16.4 µM [falling, partial curve]	
c1ccc(-c2sc3ccccc3c2-c2ccc(OCCN3CCCC3)cc2)cc1		inactive: 21.4%
CCOc1ccc(C(=O)NCCc2ccc3c(c2)OCCO3)cc1	inconclusive: 23.1 µM [falling, single point]	
COc1cccc(NC(=O)Cc2csc(NC(=O)Nc3ccccc3OC)n2)c1	inconclusive: 11.6 µM [falling, partial curve, poor fit]	
CCOC(=O)CN(C(=O)CSc1nnc2c(n1)[nH]c1ccc(OC)cc12)c1ccc(F)cc1	inconclusive: 3.66 µM [falling, partial curve, poor fit]	
CCN(c1ccc(C)cc1)S(=O)(=O)c1nnc(NC(=O)c2cccs2)s1	inconclusive: 29.1 µM [activator, single point]	
CC(=O)c1ccc(NC(=O)Nc2ccccc2)cc1	inconclusive: 0.731 µM [activator, full curve]	
CCC(C)Nc1nc(-c2c[nH]c3ccccc23)cs1 (stereo not given)		inactive: 2.23%
COc1ccccc1CNC(=O)Cn1ncc2c(C)n(Cc3ccccc3Cl)c(C)c2c1=O	inconclusive: 25.9 µM [falling, single point]	
COc1ccc(C(C)(C)C)cc1NC(=O)COC(=O)CN1C(=O)NC2(CCCCC2C)C1=O (stereo not given)	inconclusive: 3.26 µM [activator, full curve, poor fit]	
COC(=O)c1ccc(OCC(=O)c2ccc(O)cc2O)cc1	active: 8.2 µM	
Cc1ccc(C2=CC(C)(c3ccc(C)cc3)Nc3nc(C(F)(F)F)nn32)cc1 (stereo not given)	inconclusive: 29.1 µM [falling, single point]	
Cn1c(=N)n(CC(=O)c2ccc(Br)s2)c2ccccc21	inconclusive: 7.31 µM [activator, partial curve]	
O=C(C1c2ccccc2Oc2ccccc21)N1CCN(c2ccc(Cl)cc2)CC1	active: 25.9 µM	
CCN(CC)CCNC(=O)c1cc2c(=O)[nH]c3ccc(C)cc3c2s1		inactive: 0.0439%

4 entries out of the list, arranged by formula weight, largest number first:
Structure (SMILES)	Potency	activity change, negative = inhibition
CCN(CC)CCNC(=O)c1cc2c(=O)[nH]c3ccc(C)cc3c2s1		inactive: 0.0439%
CSc1nc(N2CCOCC2)c2c(c1C#N)CC(C(C)C)OC2 (stereo not given)	inconclusive: 16.4 µM [falling, partial curve]	
CC(C)c1ccc(OCC(O)Cn2cnc3ccccc32)cc1 (stereo not given)	inconclusive: 16.4 µM [falling, partial curve]	
CC1Cc2ccccc2N1C(=O)/C=C/c1cccc(F)c1 (stereo not given)	inconclusive: 5.8 µM [activator, full curve]	

— PubChem BioAssay AID504444 (National Center for Advancing Translational Sciences (NCATS), 2011)
